Test results taken from the supplement of paper PMC10849652.
This is one part of the list.

By UniProt entry, the sequences of proteins in these tests, tags left out. Where a name states a change or a piece, a line headed by the entry shows the natural chain unless it says otherwise.
UniProt Q8NCE2: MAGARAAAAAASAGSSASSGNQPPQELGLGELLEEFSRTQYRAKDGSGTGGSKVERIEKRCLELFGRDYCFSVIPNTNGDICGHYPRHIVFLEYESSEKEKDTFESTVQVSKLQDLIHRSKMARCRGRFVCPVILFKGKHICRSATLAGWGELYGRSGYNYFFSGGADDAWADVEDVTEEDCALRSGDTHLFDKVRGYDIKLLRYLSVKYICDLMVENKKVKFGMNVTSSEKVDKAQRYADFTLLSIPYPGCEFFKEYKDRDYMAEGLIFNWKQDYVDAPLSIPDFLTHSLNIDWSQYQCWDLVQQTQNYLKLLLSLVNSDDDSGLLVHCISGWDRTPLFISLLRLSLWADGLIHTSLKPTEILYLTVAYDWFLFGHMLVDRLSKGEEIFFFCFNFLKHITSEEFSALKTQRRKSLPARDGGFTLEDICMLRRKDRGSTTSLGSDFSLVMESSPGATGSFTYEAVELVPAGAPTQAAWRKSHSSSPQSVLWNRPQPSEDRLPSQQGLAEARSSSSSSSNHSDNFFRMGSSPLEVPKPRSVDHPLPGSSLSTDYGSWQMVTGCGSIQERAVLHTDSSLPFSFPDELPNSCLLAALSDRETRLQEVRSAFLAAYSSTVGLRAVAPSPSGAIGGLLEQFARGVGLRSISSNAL
UniProt P26038, whole entry, looked up: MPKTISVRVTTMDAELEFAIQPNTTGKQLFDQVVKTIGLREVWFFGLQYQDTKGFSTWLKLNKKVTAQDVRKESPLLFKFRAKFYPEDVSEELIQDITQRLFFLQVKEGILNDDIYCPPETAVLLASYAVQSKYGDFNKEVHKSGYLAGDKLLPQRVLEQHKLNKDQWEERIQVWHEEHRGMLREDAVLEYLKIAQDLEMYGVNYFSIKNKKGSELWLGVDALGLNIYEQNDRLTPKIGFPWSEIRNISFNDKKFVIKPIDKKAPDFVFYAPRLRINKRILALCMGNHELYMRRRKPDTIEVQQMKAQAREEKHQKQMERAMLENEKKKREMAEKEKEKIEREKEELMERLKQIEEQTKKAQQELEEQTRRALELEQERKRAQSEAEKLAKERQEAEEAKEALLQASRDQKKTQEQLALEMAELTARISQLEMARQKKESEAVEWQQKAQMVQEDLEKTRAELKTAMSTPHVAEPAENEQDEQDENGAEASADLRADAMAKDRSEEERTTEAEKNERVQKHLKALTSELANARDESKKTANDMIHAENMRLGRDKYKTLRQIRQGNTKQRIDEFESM
UniProt Q9BUK6: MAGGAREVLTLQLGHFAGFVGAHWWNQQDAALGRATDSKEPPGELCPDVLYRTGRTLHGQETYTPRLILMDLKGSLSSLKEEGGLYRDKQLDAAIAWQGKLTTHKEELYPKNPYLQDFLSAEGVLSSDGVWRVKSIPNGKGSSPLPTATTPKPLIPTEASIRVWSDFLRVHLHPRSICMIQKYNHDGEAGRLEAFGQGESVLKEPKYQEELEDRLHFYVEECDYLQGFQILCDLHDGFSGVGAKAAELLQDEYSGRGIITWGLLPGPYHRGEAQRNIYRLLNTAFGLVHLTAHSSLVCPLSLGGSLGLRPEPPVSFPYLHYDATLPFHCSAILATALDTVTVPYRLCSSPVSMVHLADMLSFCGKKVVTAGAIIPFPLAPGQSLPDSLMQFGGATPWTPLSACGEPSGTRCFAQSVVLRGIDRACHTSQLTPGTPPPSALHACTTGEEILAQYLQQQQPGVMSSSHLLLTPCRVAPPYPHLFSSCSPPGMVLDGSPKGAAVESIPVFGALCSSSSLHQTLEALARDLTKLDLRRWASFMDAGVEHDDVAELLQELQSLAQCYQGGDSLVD
UniProt P03915, whole entry, looked up: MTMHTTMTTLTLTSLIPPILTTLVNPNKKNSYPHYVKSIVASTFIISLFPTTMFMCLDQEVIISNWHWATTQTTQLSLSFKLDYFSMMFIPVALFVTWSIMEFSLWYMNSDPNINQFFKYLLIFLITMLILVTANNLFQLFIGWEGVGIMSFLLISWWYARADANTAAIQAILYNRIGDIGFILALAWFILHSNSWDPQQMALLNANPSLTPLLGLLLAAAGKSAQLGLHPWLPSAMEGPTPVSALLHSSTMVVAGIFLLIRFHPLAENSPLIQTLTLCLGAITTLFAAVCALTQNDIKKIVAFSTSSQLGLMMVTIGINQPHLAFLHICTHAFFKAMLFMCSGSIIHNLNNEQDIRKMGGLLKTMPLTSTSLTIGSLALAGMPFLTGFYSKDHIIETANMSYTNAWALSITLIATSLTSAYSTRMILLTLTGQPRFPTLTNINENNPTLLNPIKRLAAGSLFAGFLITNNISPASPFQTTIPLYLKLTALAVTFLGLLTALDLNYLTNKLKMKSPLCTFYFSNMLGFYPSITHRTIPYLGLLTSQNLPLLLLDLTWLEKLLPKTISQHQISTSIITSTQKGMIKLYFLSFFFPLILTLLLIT
UniProt Q9UGC7: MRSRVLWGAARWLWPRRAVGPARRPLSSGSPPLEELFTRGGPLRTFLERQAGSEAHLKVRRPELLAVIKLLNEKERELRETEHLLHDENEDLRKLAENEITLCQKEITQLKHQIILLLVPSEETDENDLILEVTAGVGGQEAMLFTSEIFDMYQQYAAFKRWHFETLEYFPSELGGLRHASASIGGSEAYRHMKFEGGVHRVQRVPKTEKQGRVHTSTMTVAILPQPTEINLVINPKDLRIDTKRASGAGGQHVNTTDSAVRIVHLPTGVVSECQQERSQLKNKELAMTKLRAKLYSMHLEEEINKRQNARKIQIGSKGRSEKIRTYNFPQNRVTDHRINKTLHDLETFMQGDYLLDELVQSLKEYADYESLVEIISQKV
UniProt Q9BTC8: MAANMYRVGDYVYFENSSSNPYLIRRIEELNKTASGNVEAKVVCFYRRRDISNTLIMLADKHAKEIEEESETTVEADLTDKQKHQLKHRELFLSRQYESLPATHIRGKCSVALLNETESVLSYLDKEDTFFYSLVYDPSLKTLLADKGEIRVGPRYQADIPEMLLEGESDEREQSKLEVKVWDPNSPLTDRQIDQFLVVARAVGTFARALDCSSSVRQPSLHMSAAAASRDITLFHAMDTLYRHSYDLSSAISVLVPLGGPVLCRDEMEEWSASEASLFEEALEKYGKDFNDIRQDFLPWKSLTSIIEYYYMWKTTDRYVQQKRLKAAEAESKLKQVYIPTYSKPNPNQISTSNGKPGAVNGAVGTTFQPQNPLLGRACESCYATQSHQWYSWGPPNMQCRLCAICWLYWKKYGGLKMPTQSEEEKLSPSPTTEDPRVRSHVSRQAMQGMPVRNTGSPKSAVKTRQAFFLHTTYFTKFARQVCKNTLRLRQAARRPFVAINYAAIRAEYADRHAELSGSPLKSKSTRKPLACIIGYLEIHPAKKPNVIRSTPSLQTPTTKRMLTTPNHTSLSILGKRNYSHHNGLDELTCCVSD

Columns and labels:
Test in all cases: log2 fold change, soluble protein after heating vs DMSO (PISA); higher = thermal stabilisation; K562 lysate, 10 uM; active = over 0.2 and 3.5 SD of the protein, either way, in both replicates (recomputed)
vemurafenib = compound: CCCS(=O)(=O)Nc1ccc(F)c(C(=O)c2c[nH]c3ncc(-c4ccc(Cl)cc4)cc23)c1F [vemurafenib]
How it was run: (§1)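 Following dounce homogenisation of K562 pellets in PBS pH 7.4 with 1 mM MgCl2, crude extract at 1 mg/mL protein was incubated for 30 min with 10 μM compound. Aliquots were then heated for 3 min over 48°C-58°C and pooled, NP-40 was added to 0.5% at 4°C, and soluble protein was recovered as the supernatant at 21,000xg for 90 min. Channel-sum-equalised TMTpro 16plex LC-MS/MS quantified this protein. Each value, from duplicates, is a log-two fold change in thermal stability relative to solvent controls.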

[1] = compound: CCCS(=O)(=O)Nc1ccc(F)c(C(=O)c2c[nH]c3ncc(Cl)cc23)c1F
How it was run: as §1

barasertib = compound: CCN(CCCOc1ccc2c(Nc3cc(CC(=O)Nc4cccc(F)c4)[nH]n3)ncnc2c1)CCOP(=O)(O)O [barasertib]
How it was run: as §1

[2] = compound: CC[C@@H]1C(=O)N(C)c2cnc(Nc3ccc(C(=O)NC4CCN(C)CC4)cc3OC)nc2N1C1CCCC1
How it was run: as §1

volasertib = compound: CC[C@@H]1C(=O)N(C)c2cnc(Nc3ccc(C(=O)N[C@H]4CC[C@H](N5CCN(CC6CC6)CC5)CC4)cc3OC)nc2N1C(C)C [volasertib]
How it was run: as §1

[3] = compound: CCn1c(C(=O)N(C2CC2)C2CC2)cc2c3c(ncn3C)c(Nc3cc(C)n(C)n3)nc21
How it was run: as §1

[4] = compound: CCn1cc(-c2ccnc3[nH]c(-c4cccc(CN(C)C)c4)cc23)c(-c2ccc(NC(=O)N(C)C)cc2)n1
How it was run: as §1

[5] = compound: CN1CCC(CNc2ccc3ncc(-c4cccc(OC(F)(F)F)c4)n3n2)CC1
How it was run: as §1

saracatinib = compound: CN1CCN(CCOc2cc(OC3CCOCC3)c3c(Nc4c(Cl)ccc5c4OCO5)ncnc3c2)CC1 [saracatinib]
How it was run: as §1

sotrastaurin = compound: CN1CCN(c2nc(C3=C(c4c[nH]c5ccccc45)C(=O)NC3=O)c3ccccc3n2)CC1 [sotrastaurin]
How it was run: as §1

alvocidib = compound: CN1CC[C@H](c2c(O)cc(O)c3c(=O)cc(-c4ccccc4Cl)oc23)[C@H](O)C1 [alvocidib]
How it was run: as §1

Tubastatin A = compound: CN1CCc2c(c3ccccc3n2Cc2ccc(C(=O)NO)cc2)C1 [Tubastatin A]
How it was run: as §1

[6] = compound: CNC(=O)C1=CC=CC=C1NC2=NC(=NC=C2Cl)NC3=C(C=C(C=C3)N4CCOCC4)OC
How it was run: as §1

defactinib = compound: CNC(=O)c1ccc(Nc2ncc(C(F)(F)F)c(NCc3nccnc3N(C)S(C)(=O)=O)n2)cc1 [defactinib]
How it was run: as §1

[7] = compound: CNc1nc(-c2ccc3c(N)n[nH]c3c2)cc(N2C[C@@H](C(=O)NC3CCCCC3)CC[C@H]2C)n1
How it was run: as §1

encorafenib = compound: COC(=O)N[C@@H](C)CNc1nccc(-c2cn(C(C)C)nc2-c2cc(Cl)cc(NS(C)(=O)=O)c2F)n1 [encorafenib]
How it was run: as §1

[8] = compound: COC(=O)[C@H](CCSC)NC(=O)C1=C(C=C(C=C1)NC[C@H](CS)N)C2=CC=CC=C2
How it was run: as §1

alisertib = compound: COc1cc(Nc2ncc3c(n2)-c2ccc(Cl)cc2C(c2c(F)cccc2OC)=NC3)ccc1C(=O)O [alisertib]
How it was run: as §1

[9] = compound: COc1cc2nc(-c3cc(F)ccc3O)nc(N[C@@H]3CNC[C@H]3C(C)(C)O)c2cc1OC
How it was run: as §1

gefitinib = compound: COc1cc2ncnc(Nc3ccc(F)c(Cl)c3)c2cc1OCCCN1CCOCC1 [gefitinib]
How it was run: as §1

Measured: log2 fold change

MTMR14 (UniProt Q8NCE2)
inactive: vemurafenib 0.024 | [1] 0.061 | barasertib 0.027 | [2] 0.018 | volasertib -0.08 | [3] 0.031 | [4] -0.016 | [5] 0.002 | saracatinib 0.034 | sotrastaurin -0.01 | alvocidib -0.013 | Tubastatin A -0.093 | [6] 0.02 | defactinib 0.023 | [7] -0.013 | encorafenib 0.066 | [8] -0.151 | alisertib -0.017 | [9] -0.004 | gefitinib -0.034

MRPL33 (UniProt O75394)
inactive: vemurafenib -0.155 | [1] 0.064 | barasertib 0.082 | [2] -0.156 | volasertib -0.063 | [3] -0.13 | [4] 0.079 | [5] 0.036 | saracatinib 0.09 | sotrastaurin -0.121 | alvocidib 0.004 | Tubastatin A 0.084 | [6] 0.126 | defactinib 0.11 | [7] 0.079 | encorafenib 0.036 | [8] 0.099 | alisertib -0.069 | [9] -0.057 | gefitinib 0.055

MSN (UniProt P26038)
inactive: vemurafenib -0.013 | [1] -0.013 | barasertib -0.027 | [2] -0.013 | volasertib 0.006 | [3] -0.002 | [4] 0.051 | [5] -0.005 | saracatinib -0.007 | sotrastaurin 0.001 | alvocidib 0 | Tubastatin A 0.041 | [6] -0.025 | defactinib -0.019 | [7] 0.005 | encorafenib -0.031 | [8] 0.022 | alisertib 0.014 | [9] -0.004 | gefitinib -0.005

MRPS18C (UniProt Q9Y3D5)
inactive: vemurafenib -0.003 | [1] -0.011 | barasertib 0.045 | [2] -0.058 | volasertib 0.034 | [3] 0.008 | [4] -0.097 | [5] 0.031 | saracatinib 0.082 | sotrastaurin 0 | alvocidib 0.027 | Tubastatin A -0.002 | [6] 0.081 | defactinib -0.23 | [7] 0.008 | encorafenib 0.012 | [8] -0.089 | alisertib 0.081 | [9] -0.056 | gefitinib -0.045

MRPL37 (UniProt Q9BZE1)
inactive: vemurafenib 0.034 | [1] 0.016 | barasertib 0 | [2] -0.098 | volasertib -0.041 | [3] -0.015 | [4] -0.024 | [5] -0.07 | saracatinib 0.005 | sotrastaurin 0.035 | alvocidib -0.032 | Tubastatin A -0.042 | [6] 0.006 | defactinib 0.046 | [7] -0.03 | encorafenib -0.001 | [8] 0.015 | alisertib 0.014 | [9] -0.025 | gefitinib 0.003

MTOR (UniProt P42345)
inactive: vemurafenib 0.026 | [1] 0.015 | barasertib 0.052 | [2] -0.045 | volasertib -0.044 | [3] -0.006 | [4] -0.04 | [5] -0.031 | saracatinib 0.005 | sotrastaurin 0.03 | alvocidib -0.054 | Tubastatin A -0.118 | [6] -0.038 | defactinib 0.01 | [7] -0.025 | encorafenib 0.016 | [8] 0.014 | alisertib 0.006 | [9] 0 | gefitinib -0.039

MRPS9 (UniProt P82933)
inactive: vemurafenib 0.014 | [1] -0.006 | barasertib 0.044 | [2] -0.029 | volasertib -0.031 | [3] 0.019 | [4] -0.076 | [5] 0.036 | saracatinib 0.008 | sotrastaurin 0.027 | alvocidib 0.013 | Tubastatin A -0.036 | [6] 0.004 | defactinib 0.008 | [7] 0.044 | encorafenib 0.03 | [8] 0.021 | alisertib -0.021 | [9] -0.008 | gefitinib 0.026

MRPL4 (UniProt Q9BYD3)
inactive: vemurafenib 0.022 | [1] 0.004 | barasertib -0.064 | [2] 0.057 | volasertib 0.037 | [3] -0.007 | [4] 0.176 | [5] -0.021 | saracatinib -0.014 | sotrastaurin -0.017 | alvocidib 0.045 | Tubastatin A 0.004 | [6] -0.028 | defactinib 0.036 | [7] 0.039 | encorafenib 0.068 | [8] -0.041 | alisertib 0.027 | [9] -0.055 | gefitinib -0.053

MRPL43 isoform 4 (UniProt Q8N983)
inactive: vemurafenib -0.006 | [1] -0.014 | barasertib -0.04 | [2] -0.036 | volasertib -0.011 | [3] 0.08 | [4] -0.056 | [5] -0.059 | saracatinib 0 | sotrastaurin -0.073 | alvocidib 0.058 | Tubastatin A 0.057 | [6] -0.031 | defactinib -0.019 | [7] -0.038 | encorafenib 0.036 | [8] -0.11 | alisertib 0.013 | [9] -0.014 | gefitinib -0.03

MSTO1 (UniProt Q9BUK6)
inactive: vemurafenib -0.025 | [1] -0.059 | barasertib 0.015 | [2] -0.03 | volasertib -0.021 | [3] 0.017 | [4] 0.049 | [5] -0.016 | saracatinib -0.031 | sotrastaurin -0.045 | alvocidib 0.02 | Tubastatin A -0.044 | [6] -0.06 | defactinib 0.022 | [7] -0.027 | encorafenib 0.054 | [8] -0.05 | alisertib 0.007 | [9] -0.003 | gefitinib 0.002

Quoted at random: two entries already listed.
MRPS9 (UniProt P82933)
inactive: vemurafenib 0.014 | [1] -0.006 | barasertib 0.044 | [2] -0.029 | volasertib -0.031 | [3] 0.019 | [4] -0.076 | [5] 0.036 | saracatinib 0.008 | sotrastaurin 0.027 | alvocidib 0.013 | Tubastatin A -0.036 | [6] 0.004 | defactinib 0.008 | [7] 0.044 | encorafenib 0.03 | [8] 0.021 | alisertib -0.021 | [9] -0.008 | gefitinib 0.026

MRPL4 (UniProt Q9BYD3)
inactive: vemurafenib 0.022 | [1] 0.004 | barasertib -0.064 | [2] 0.057 | volasertib 0.037 | [3] -0.007 | [4] 0.176 | [5] -0.021 | saracatinib -0.014 | sotrastaurin -0.017 | alvocidib 0.045 | Tubastatin A 0.004 | [6] -0.028 | defactinib 0.036 | [7] 0.039 | encorafenib 0.068 | [8] -0.041 | alisertib 0.027 | [9] -0.055 | gefitinib -0.053

Remaining list, next part:

MRPL39 isoform 2 (UniProt Q9NYK5)
inactive: vemurafenib 0.042 | [1] -0.016 | barasertib 0.021 | [2] 0.048 | volasertib -0.041 | [3] -0.014 | [4] 0.167 | [5] -0.061 | saracatinib -0.025 | sotrastaurin 0.056 | alvocidib 0.047 | Tubastatin A -0.013 | [6] -0.01 | defactinib -0.015 | [7] -0.012 | encorafenib 0.073 | [8] -0.088 | alisertib 0.004 | [9] -0.006 | gefitinib -0.011

MRPL50 (UniProt Q8N5N7)
inactive: vemurafenib 0.017 | [1] -0.019 | barasertib 0.072 | [2] 0.016 | volasertib 0.057 | [3] -0.006 | [4] -0.068 | [5] 0.009 | saracatinib 0.021 | sotrastaurin -0.02 | alvocidib 0.028 | Tubastatin A 0.057 | [6] 0.046 | defactinib 0.111 | [7] 0.042 | encorafenib 0.09 | [8] -0.306 | alisertib -0.022 | [9] 0.022 | gefitinib -0.218

MT-ND5 (UniProt P03915)
inactive: vemurafenib -0.064 | [1] 0.001 | barasertib -0.124 | [2] 0.01 | volasertib 0.013 | [3] 0.019 | [4] 0.11 | [5] -0.044 | saracatinib 0.096 | sotrastaurin 0.022 | alvocidib -0.033 | Tubastatin A 0.132 | [6] 0.045 | defactinib 0.059 | [7] 0.109 | encorafenib 0.01 | [8] -0.022 | alisertib 0.024 | [9] 0.008 | gefitinib -0.079

MTRF1L (UniProt Q9UGC7)
inactive: vemurafenib 0.038 | [1] 0.034 | barasertib -0.046 | [2] 0 | volasertib 0.019 | [3] -0.056 | [4] -0.117 | [5] 0.025 | saracatinib 0.004 | sotrastaurin -0.037 | alvocidib -0.033 | Tubastatin A 0.031 | [6] 0.022 | defactinib -0.128 | [7] 0.017 | encorafenib -0.006 | [8] 0.045 | alisertib 0.001 | [9] 0.066 | gefitinib 0.006

MRPS26 (UniProt Q9BYN8)
inactive: vemurafenib 0.027 | [1] 0.058 | barasertib -0.021 | [2] -0.031 | volasertib -0.083 | [3] -0.108 | [4] -0.139 | [5] -0.031 | saracatinib 0.051 | sotrastaurin 0.002 | alvocidib 0.016 | Tubastatin A 0.044 | [6] -0.043 | defactinib -0.045 | [7] -0.068 | encorafenib 0.051 | [8] -0.037 | alisertib -0.066 | [9] 0.244 | gefitinib 0.031

MTA3 (UniProt Q9BTC8)
inactive: vemurafenib 0.019 | [1] 0.002 | barasertib 0.017 | [2] 0.023 | volasertib -0.022 | [3] -0.055 | [4] -0.017 | [5] -0.097 | saracatinib 0.036 | sotrastaurin -0.006 | alvocidib -0.016 | Tubastatin A -0.013 | [6] 0.019 | defactinib 0.044 | [7] -0.043 | encorafenib 0.041 | [8] 0.091 | alisertib 0.077 | [9] 0.025 | gefitinib -0.059
